The structures appear in SMILES notation. The list shows a part of the results. Shown are side measurements of this screen, not its main read-out; they come without a call. Compounds called inactive in the main read-out are mostly missing here. Words in brackets tell the shape of the fitted curve; partial curves, single points and poor fits give uncertain potencies.

What is called AC50 is the midpoint of the concentration-response curve, whichever way the signal moves. Read a high AC50 as activity only at high concentration.

The assay can be described thus: qHTS Assay for Lipid Storage Modulators in Drosophila S3 Cells.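 On cell number change: cells counted by Cell Tracker Red CMTPX staining in the red channel.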 As to conditions: BODIPY lipid droplet fluorescence, 18-24 h; for cell number change: measured here: cell count max response, cells fed with added oleic acid. An outline of the steps:
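Laser-scanning cytometry quantifies lipid droplet accumulation (500–530 nm total intensity; droplet/cell object ratio) in oleic acid-fed (400 uM added) Drosophila S3 cells treated with a concentration series. 20 uM Triacsin C defined 100% inhibition.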
A general note: In qHTS, concentration-response curves come from the screen itself.

Setting [1] is: measured here: cell number channel AC50, cells fed with added oleic acid.
Where [2] appears, read: measured here: lipid fluorescence (Fed channel) AC50, cells fed with added oleic acid.

Consider `Cc1ccccc1OCCn1cc(/C(N)=N/O)c2ccccc21`, for which the cell number change was 1.43%. The AC50 under setting [1] is 6.51 µM [falling, single point].

For the compound `C(=N\n1cnnc1)/c1cccs1`, the cell number change is -16%. For the same compound, the AC50 under setting [1] is 4.61 µM [falling, single point]. Also, under setting [2], the AC50 was 1.64 µM [falling, partial curve].

As to `COCCSc1nc2c(c(=O)[nH]c(=O)n2C)n1CCCc1ccccc1`, the cell number change is -13.2%.

As for `N#CCCN(Cc1ccncc1)C(=S)NC1CC2C=CC1C2` (centres undefined), the cell number change turned out to be 22.6%. Besides, the concentration at half-maximal activity (AC50) under setting [2] is 13 µM [rising, partial curve, poor fit].

Turning to `O=C1CCCN1S(=O)(=O)c1ccc(F)cc1`, the cell number change was -9.94%. The AC50 under setting [2] is 6.51 µM [falling, single point].

As for `O=C(Nc1ccccc1C(F)(F)F)c1cc(-c2cccc(O)c2)on1`, the AC50 under setting [2] is 0.146 µM [falling, full curve, poor fit].

Turning to `CCc1[nH]nc(C(=O)NC2CCCc3c2cnn3-c2cc(C)cc(C)c2)c1C` (centres undefined), the cell number change was -42.5%. Under setting [1], the AC50 was 7.31 µM [falling, partial curve]. Besides, under setting [2], the concentration at half-maximal activity (AC50) is 5.17 µM [falling, full curve].

As for `CSc1ccc(/C=C(\NC(=O)c2ccc(C)cc2)C(=O)NN)cc1`, the cell number change worked out at 18%. In addition, the AC50 under setting [2] is 29.1 µM [rising, single point].

`O=C(CCNC(=O)C1CCN(S(=O)(=O)c2ccccc2)CC1)NCc1ccccn1`: the cell number change amounted to 3.4%. The concentration at half-maximal activity (AC50) under setting [2] is 11.6 µM [rising, partial curve].

`CC1(C(=O)NNC(=O)C2CCCCC2)CC1(Cl)Cl` (centres undefined): the cell number change was -27.7%. Under setting [2], the half-maximal activity concentration (AC50) was 2.31 µM [falling, partial curve, poor fit].

As to `O=C(C1CCN(S(=O)(=O)c2cccc3cccnc23)CC1)N1CC=C(c2ccccc2)CC1`, the cell number change came out at 4.5%. For the same compound, under setting [2], the concentration at half-maximal activity (AC50) is 7.31 µM [rising, partial curve, poor fit].

Consider `CCCCn1c(SCC(=O)NC(=O)Cc2ccccc2)nc2ccccc2c1=O`, for which the cell number change was -12.3%. Besides, the half-maximal activity concentration (AC50) under setting [2] is 0.0164 µM [falling, full curve, poor fit].

In the case of `N#Cc1ccc(S(=O)(=O)N2CCC(C(=O)Nc3cccc(C(=O)NC4CC4)c3)CC2)cc1`, the cell number change is 6.83%. Besides, the half-maximal activity concentration (AC50) under setting [2] was 1.46 µM [rising, partial curve].

For `O=C(NNC(=O)C1CCN(C(=O)Nc2ccccc2)CC1)c1ccc(F)cc1`, the cell number change stood at 29.7%. Besides, the half-maximal activity concentration (AC50) under setting [2] is 23.1 µM [rising, single point].

Regarding `CCCCNC(=O)c1onc(CSc2ccc(OC)cc2)c1C(=O)O`, the cell number change was found to be 16.4%.

As for `O=C(c1ccco1)N1CCN=C1SCc1ccccc1F`, the cell number change was 7.71%.

As for `CCOC(=O)CNC(=O)CSc1nc2cccnc2n1C1CCCCC1`, the cell number change is 14.7%.

Take `Cc1nn(CC(=O)NCc2ccccc2)c(=O)c2ccccc12`: the cell number change is 22.6%. Further, under setting [2], the AC50 was 0.651 µM [rising, single point].

In the case of `O=S(=O)(c1ccc(Cl)cc1)N1CCN(c2ccccn2)CC1`, the cell number change was -9.71%. For the same compound, the concentration at half-maximal activity (AC50) under setting [2] is 3.26 µM [falling, partial curve, poor fit].

For the compound `CC1CCN(c2nc3c(c(=O)[nH]c(=O)n3C)n2CCCc2ccccc2)CC1`, the cell number change worked out at 109%. Further, the half-maximal activity concentration (AC50) under setting [1] was 13 µM [rising, partial curve]. Besides, the AC50 under setting [2] was 16.4 µM [rising, partial curve].

Take `O=C(NCC1(c2ccccc2)CCCC1)C(=O)N1CCOCC1`: the cell number change was determined as 15.4%. In addition, the AC50 under setting [2] was 7.31 µM [rising, partial curve, poor fit].

`Cc1ccc(C(=O)N2CCN(c3ccc(NC(=S)NC(=O)Cc4ccccc4)cc3)CC2)cc1`: the cell number change is -36.1%. Also, the AC50 under setting [1] was 0.0259 µM [falling, full curve, poor fit]. Moreover, under setting [2], the AC50 is 6.51 µM [falling, partial curve, poor fit].

For the compound `C/C=C/c1ccc(OCC(=O)OCC(=O)Nc2c(C)nn(-c3ccccc3)c2C)c(OC)c1`, the cell number change is 14%.

On to `C/C(Cn1nnc([N+](=O)[O-])n1)=N\NC(=O)c1ccc(O)cc1`, for which the cell number change is 3.94%.

Take `O=C(c1ccc2nc(-c3ccco3)c(-c3ccco3)nc2c1)N1CCN(c2ccccc2)CC1`: the AC50 is 0.326 µM [rising, full curve] under setting [1] and 18.4 µM [rising, partial curve] under setting [2].

For the compound `O=C(Cn1cnc2c(nnn2Cc2ccc(Cl)cc2)c1=O)NCC1CCCO1` (centres undefined), the half-maximal activity concentration (AC50) under setting [1] was 0.116 µM [falling, full curve, poor fit].

In the case of `COc1cc(Cl)cc(NC(=O)CCN2CCN(C)CC2)c1`, the cell number change came out at 5.58%.

`C=CCNC(=O)c1cc(Cl)ccn1`: the cell number change was -42.8%.

Regarding `COc1ccc(C2CC(=O)Oc3ccc(C(C)(C)C)cc32)cc1` (centres undefined), the cell number change came out at 12%.

`O=C(NCCO)c1ccc2[nH]c3ccccc3c2c1`: the half-maximal activity concentration (AC50) runs as follows: under setting [1], 0.259 µM [rising, partial curve]; under setting [2], 2.31 µM [rising, partial curve].

`CN1CC(c2ccccn2)C2(SC(=S)N(Cc3ccccc3)C2=O)C12C(=O)Nc1ccccc12` (centres undefined): the cell number change is -36.1%. Also, the AC50 under setting [1] is 32.6 µM [falling, single point]. Under setting [2], the AC50 was 3.26 µM [rising, partial curve, poor fit].

Regarding `O=[N+]([O-])c1ccc(O)c(/C=N\N=C2c3ccccc3-c3ccccc32)c1`, the cell number change is -34.6%. In addition, the half-maximal activity concentration (AC50) under setting [1] was 7.31 µM [falling, partial curve]. Also, the AC50 under setting [2] is 0.164 µM [falling, full curve].

For the compound `C[C@H](NC(N)=O)C(=O)Nc1ccc(OCc2ccccc2)cc1`, the cell number change was -62.8%. In addition, the concentration at half-maximal activity (AC50) under setting [1] was 29.1 µM [falling, single point]. Further, the AC50 under setting [2] is 32.6 µM [falling, partial curve, poor fit].

Take `CC1CN(S(=O)(=O)c2ccc(C(=O)Nc3nc(-c4cc5ccccc5o4)cs3)cc2)CC(C)O1` (centres undefined): the cell number change was -34.1%. The concentration at half-maximal activity (AC50) under setting [1] was 18.4 µM [falling, single point]. Moreover, the AC50 under setting [2] is 1.03 µM [falling, partial curve].

As to `O=C(NCCCn1ccnc1)c1nc(Cn2cc([N+](=O)[O-])cn2)no1`, the cell number change came to 7.83%.

Take `O=C(CCc1ccccc1)NN1C(=O)C2C3C=CC(O3)C2C1=O` (centres undefined): the cell number change was found to be 98.7%.

Take `Nc1cccc(C(=O)Nc2ccc3nc(-c4cccnc4)[nH]c3c2)c1`: the AC50 under setting [2] was 1.64 µM [rising, full curve, poor fit].

Consider `Nc1c(C(=O)C2CC2)sc2nc(-c3ccccc3)cc(C(F)(F)F)c12`, for which the cell number change is -17.6%. Besides, the AC50 under setting [1] is 6.51 µM [falling, single point]. Besides, the AC50 under setting [2] was 4.61 µM [falling, full curve].

For `O=C(/C=C/c1cccc([N+](=O)[O-])c1)N1CCN(Cc2ccc3c(c2)OCO3)CC1`, the cell number change was 33.9%. The AC50 under setting [1] was 1.64 µM [rising, full curve]. Further, under setting [2], the AC50 is 18.4 µM [rising, partial curve].

These data come from PubChem BioAssay AID2685 (National Center for Advancing Translational Sciences (NCATS), 2010).
